PubChem BioAssay AID504744, Drosophila RNAi Screening Center – 2011

- Screen: 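Identify dsRNAs that increase or decrease phospho-dAkt after insulin treatment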 (primary screen)
- Cell system: Drosophila Kc167 cells
- Knock-down reagent: long dsRNA against Drosophila genes, 250 ng dsRNA per well of a 384-well plate
- Time to read-out: 3 days of knock-down, then overnight serum-free starvation before stimulation
- Conditions: bovine insulin at 387 nM for 10 minutes after 12 h without serum
- Measured: 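In-cell antibody fluorescence for phospho-dAkt in each well over DNA-dye signal, with log2 residuals expressed as z-scores adjusted for cell count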
- Hit rule: 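Hit in the insulin screen when the two-replicate mean z-score is more extreme than plus or minus 2.5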
The screen tested about 23,000 reagents; this is an unselected part of those with a known target gene and a result. Of all reagents, 98 (0.43%) got an active call. 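Only hit calls are given; the phospho-dAkt signals, z-scores and hit direction were not deposited.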 The numbers tell different reagents against one gene apart. Names joined by + are all predicted targets of the reagent. Reagent sequences are not shown.

no.	predicted target	dsRNA no.	outcome
1	CG42299 + CG42300	1	inactive
2	CG42299 + CG42300	2	inactive
3	Gba1a	1	inactive
4	Achl	1	inactive
5	Abl	1	inactive
6	CG31213	1	inactive
7	CG31213	2	inactive
8	Zcchc7	1	inactive
9	MAPk-Ak2	1	inactive
10	ReepB	1	inactive
11	qm	1	inactive
12	l(2)gl	1	inactive
13	mkg-p + Tpt	1	inactive
14	CG30440	1	inactive
15	CG30440	2	inactive
16	CG30440	3	inactive
17	ppk18	1	inactive
18	CG42518 + MED9	1	inactive
19	loqs	1	inactive
20	CG4641 (retired record)	1	inactive
21	CG34045	1	inactive
22	CG15729 (retired record)	1	inactive
23	CG11099	1	inactive
24	MtnA	1	inactive
25	Septin4	1	inactive
26	Ir76b	1	inactive
27	CG18011	1	inactive
28	CG18011	2	inactive
29	kl-3 (retired record)	1	inactive
30	kl-3 (retired record)	2	inactive
31	kl-3 (retired record)	3	inactive
32	Es2	1	inactive
33	CG32695	1	inactive
34	ND-B14.5A	1	inactive
35	CG5746	1	inactive
36	Tsp42Ee	1	inactive
37	MFS1	1	inactive
38	Cyp12e1	1	inactive
39	CG12849	1	inactive
40	alpha-Est10	1	inactive
41	COX5BL	1	inactive
42	CG18480	1	inactive
43	CG13481	1	inactive
44	sax	1	inactive
45	CG13063	1	inactive
46	Sfp38D	1	inactive
47	Obp56h	1	inactive
48	Mks1	1	inactive
49	Cyp317a1	1	inactive
50	ss	1	inactive
51	Uhg3	1	inactive
52	Polr3A	1	inactive
53	Grasp65	1	inactive
54	PGAP5	1	inactive
55	sosie	1	inactive
56	sosie	2	inactive
57	Fas1	1	inactive
58	temp	1	inactive
59	Ror	1	inactive
60	CG2975	1	inactive
61	CG5273	1	inactive
62	CG11069	1	inactive
63	CG12942	1	inactive
64	didum	1	inactive
65	spi	1	inactive
66	Pgcl	1	inactive
67	Obp69a	1	inactive
68	Ssu72	1	inactive
69	CG33722 + CG18749	1	inactive
70	CG33722 + CG18749	2	inactive
71	CG12607	1	inactive
72	nAChRbeta1	1	inactive
73	nAChRbeta1	2	inactive
74	alpha4GT1	1	inactive
75	mod(mdg4)	1	inactive
76	mod(mdg4)	2	inactive
77	mod(mdg4)	3	inactive
78	mod(mdg4)	4	inactive
79	mod(mdg4)	5	inactive
80	mod(mdg4)	6	inactive
81	Cnb	1	inactive
82	CG17764	1	inactive
83	Hs2st	1	inactive
84	TTLL3A	1	inactive
85	CG10799	1	inactive
86	CG13625	1	inactive
87	CG8607	1	inactive
88	sm	1	inactive
89	sm	2	inactive
90	CG14565	1	inactive
91	PolI	1	inactive
92	CG5348	1	inactive
93	yl	1	inactive
94	CG15599	1	inactive
95	CG13937	1	inactive
96	wcy	1	inactive
97	Ddx1	1	inactive
98	CG3517	1	inactive
99	so	1	inactive
100	CG3919	1	inactive
101	jef	1	inactive
102	CG13315	1	inactive
103	tamo	1	inactive
104	bigmax	1	inactive
105	CG13014	1	inactive
106	pod1	1	inactive
107	Or42b	1	inactive
108	CG9083	1	inactive
109	Kpc1	1	inactive
110	hrg	1	inactive
111	CG12655	1	inactive
112	Cyp4p2	1	inactive
113	rod	1	inactive
114	Mec2	1	inactive
115	Mipp1	1	inactive
116	ac	1	inactive
117	mas	1	inactive
118	CG4835	1	inactive
119	CG14324	1	inactive
120	Nadsyn	1	inactive
121	CG5151	1	inactive
122	CG12895	1	inactive
123	omd	1	inactive
124	CG32061	1	inactive
125	Su(fu)	1	inactive
126	mael	1	inactive
127	Spn77Ba	1	inactive
128	cup	1	inactive
129	CG10298	1	inactive
130	CG5357 (retired record)	1	inactive
131	Hk	1	inactive
132	Hk	2	inactive
133	CG10073	1	inactive
134	Desi	1	inactive
135	Vlet	1	inactive
136	CG13699	1	inactive
137	CG11779	1	inactive
138	CG18131	1	inactive
139	CG5973	1	inactive
140	CG6345	1	inactive
141	Bsg	1	inactive
142	Bsg	2	inactive
143	CG8281	1	inactive
144	REG	1	inactive
145	CG18213	1	inactive
146	CG12589	1	inactive
147	Kdm4A	1	inactive
148	alpha-Est4	1	inactive
149	Stacl + CG8179 (retired record)	1	inactive
150	CG15263	1	inactive
151	Oatp33Ea	1	inactive
152	MagR	1	inactive
153	CG11816	1	inactive
154	meng	1	inactive
155	Cf2	1	inactive
156	CG17059	1	inactive
157	RpS8	1	inactive

Taken from above:
hrg, outcome = inactive
Under “outcome”, ND-B14.5A reads inactive
temp, outcome = inactive
wcy, outcome: inactive
MagR, outcome: inactive
For “outcome”, sm #1 shows inactive
